Reference: PubChem BioAssay AID504327 (National Center for Advancing Translational Sciences (NCATS), 2011)
Screen size: about 390,000 compounds; about 820 (0.21%) were called active. This list was built around the results that the source calls inconclusive (neither active nor inactive); the mix of calls is not that of the screen. The call rests on the fitted dose curve; in most records, active means well fitted inhibition curve with a large enough effect; inconclusive means small, poorly fitted or top-dose-only effect, or another doubt; inactive means no such curve, though single readings can be large or run the other way. Potencies beside an inconclusive call are fits to weak or partial responses and may not hold up.

The chains behind the UniProt entries cited, without tags or fusion partners.
UniProt Q92830, whole entry, looked up: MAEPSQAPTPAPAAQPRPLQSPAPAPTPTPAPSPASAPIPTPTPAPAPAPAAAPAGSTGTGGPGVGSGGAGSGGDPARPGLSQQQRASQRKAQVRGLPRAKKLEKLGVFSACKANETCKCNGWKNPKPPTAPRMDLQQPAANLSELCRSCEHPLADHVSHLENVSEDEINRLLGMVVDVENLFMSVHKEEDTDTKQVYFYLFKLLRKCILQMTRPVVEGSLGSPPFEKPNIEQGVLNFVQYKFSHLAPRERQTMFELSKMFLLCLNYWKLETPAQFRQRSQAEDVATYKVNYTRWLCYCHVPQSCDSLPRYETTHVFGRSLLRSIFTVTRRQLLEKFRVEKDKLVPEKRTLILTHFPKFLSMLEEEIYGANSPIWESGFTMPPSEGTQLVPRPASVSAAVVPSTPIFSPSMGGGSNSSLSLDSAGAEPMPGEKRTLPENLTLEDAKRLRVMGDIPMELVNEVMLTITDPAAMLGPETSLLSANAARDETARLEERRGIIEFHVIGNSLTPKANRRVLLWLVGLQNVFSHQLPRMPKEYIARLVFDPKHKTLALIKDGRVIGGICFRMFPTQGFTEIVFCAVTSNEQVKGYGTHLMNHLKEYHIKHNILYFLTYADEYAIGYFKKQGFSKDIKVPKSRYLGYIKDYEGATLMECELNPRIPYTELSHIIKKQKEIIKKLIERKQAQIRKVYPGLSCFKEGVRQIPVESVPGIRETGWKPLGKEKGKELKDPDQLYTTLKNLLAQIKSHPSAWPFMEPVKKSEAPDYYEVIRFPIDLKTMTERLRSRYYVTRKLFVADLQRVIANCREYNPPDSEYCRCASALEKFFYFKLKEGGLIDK

Each compound was assayed against Histone acetyltransferase KAT2A (Homo sapiens) (UniProt Q92830) (assay: qHTS Assay for Inhibitors of GCN5L2). Settings: GCN5L2 HAT assay, ThioGlo1 CoA-SH fluorescence; activity change, negative = inhibition: at 58.9 µM (top of the series) unless noted.
Method in brief: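 Enzyme at 20nM final was mixed with library compounds for 15 min at room temperature. Peptide H3(1-25) at 75uM, acetyl-CoA at 70uM and ThioGlo1 at 50uM were then added. Plates were read immediately and after 20 min (Ex340nm/Em540nm).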
On the % scale 0 is the no-effect control and ±100 the full control effect; potency means the concentration at half of the fitted maximal effect.

Structure (SMILES) | Potency | activity change, negative = inhibition
O=C(N/N=C/C(Br)=C/c1ccccc1)c1ccc([N+](=O)[O-])cc1 | inconclusive: 39.8 µM [inhibitor, single point] | 
CN(C)c1ncc2nc(CCc3ccccc3)c(=O)n(CCc3ccccc3)c2n1 |  | inactive: -10.5%
Cc1[nH]n2cnnc2c(=O)c1Br | inconclusive: 15.8 µM [inhibitor, single point] | 
Cc1ccc(C2C3=C(CCCC3=O)OC3=C2C(=O)CCC3)cc1 |  | inactive: -2.72%
COc1ccccc1CNC(=O)CCCc1nnc2n(C)c(=O)c3sccc3n12 |  | inactive: -8.05%
O=C(O)Cc1cccc(OCCCN(Cc2cccc(C(F)(F)F)c2Cl)CC(c2ccccc2)c2ccccc2)c1 | active: 11.2 µM | 
Cc1ccc(S(=O)(=O)NCCOc2nc(N(C)C)nc(N(C)C)n2)cc1 |  | inactive: 2.04%
Cc1ccc(-n2c3c(cc(C(=O)NCC(=O)c4ccccc4)c2=O)C(=O)CCC3)cc1 | inconclusive: 0.126 µM [inhibitor, full curve, poor fit] | 
COc1ccc(NC(=O)CN2C(=O)CSc3ncccc32)cc1 | inconclusive: 0.141 µM [inhibitor, full curve, poor fit] | 
Cc1ccc(C2=NN(C(=O)CCC(=O)O)C(c3cn(-c4ccccc4)nc3-c3ccc(C)cc3)C2)cc1 (centres undefined) | inconclusive: 39.8 µM [inhibitor, single point] | 
CCn1nc(C)c(CN2CCCCC2C(=O)Nc2ccc(Oc3cccnc3)cc2)c1C (centres undefined) | inconclusive: 0.112 µM [inhibitor, full curve, poor fit] | 
CCOc1ccc(Cl)cc1CSc1n[nH]c(C)n1 | inconclusive: 35.5 µM [inhibitor, single point] | 
O=C(c1ccc(NS(=O)(=O)c2ccc(F)cc2)cc1)N1CCC1 | inconclusive: 39.8 µM [inhibitor, single point] | 
Cc1cccc(N2CCN(C(=O)c3c4c(nc5ccccc35)C(=O)N(C3CCCCC3)C4)CC2)c1C |  | inactive: -4.89%
Cc1cccc(C)c1OCC(=O)NNC(=O)CCNC(=O)c1ccc(Br)cc1 | inconclusive: 0.562 µM [inhibitor, full curve, poor fit] | 
CN(C)c1ncc2nc(-c3ccc(F)cc3)c(=O)n(C3CC3)c2n1 | inconclusive: 15.8 µM [inhibitor, partial curve] | 
CN(C)c1ccc(-c2nc3ccccn3c2Nc2ccc3c(c2)OCCO3)cc1 | inconclusive: 25.1 µM [inhibitor, single point] | 
O=C(CCC(=O)N1CCOc2ccccc21)NCCCN1CCCCC1 | inconclusive: 39.8 µM [inhibitor, single point] | 
C=C1c2cc(C)c(C)cc2NC(=O)N1c1ccccc1 | inconclusive: 0.708 µM [inhibitor, single point] | 
Cc1nn(C)c(C)c1CN(C(=O)CCc1nnc(Cc2c[nH]c3ccccc23)o1)C(C)C | inconclusive: 28.2 µM [inhibitor, single point] | 
CN(Cc1ccccc1)C(=O)c1ccc2c(c1)N(Cc1ccc(Cl)cc1)C(=O)c1ccccc1S2=O (centres undefined) |  | inactive: -3.95%
CCCOc1ccccc1C(=O)Nc1nc2c(s1)CCCC2 |  | inactive: -11.8%

One compound at a time, as listed above.
Cc1ccc(C2=NN(C(=O)CCC(=O)O)C(c3cn(-c4ccccc4)nc3-c3ccc(C)cc3)C2)cc1 (centres undefined) is listed with Potency: inconclusive: 39.8 µM [inhibitor, single point]
Cc1ccc(C2C3=C(CCCC3=O)OC3=C2C(=O)CCC3)cc1 is listed with activity change, negative = inhibition: inactive: -2.72%
CCOc1ccc(Cl)cc1CSc1n[nH]c(C)n1 is listed with Potency: inconclusive: 35.5 µM [inhibitor, single point]

Carrying on:

Structure (SMILES) | Potency | activity change, negative = inhibition
O=C1OCCN1C(=O)[C@H]1[C@H](c2ccc(Cl)cc2)C(c2ccccc2)=NN1c1ccc(Br)cc1 | inconclusive: 28.2 µM [inhibitor, single point] | 
COCC1CCCN(C(=O)c2cc(COc3cccc4cccnc34)on2)C1 (centres undefined) | inconclusive: 7.08 µM [inhibitor, single point] | 
O=C(NCc1nnc(SCc2ccc(F)cc2)n1-c1ccc(F)cc1)C12CC3CC(CC(C3)C1)C2 |  | inactive: -5.26%
CCCCC(=O)Nc1ccc(C(=O)NNC(=O)c2ccccc2Br)cc1 | inconclusive: 0.398 µM [inhibitor, partial curve, poor fit] | 
COc1ccc(-c2[nH]c(-c3ccccc3)nc2SCC(=O)Nc2ccc3c(c2)OCO3)cc1 |  | inactive: -7.2%
CN(C)C(=O)c1nc2ccc(Cl)cn2c1CN1CCN(c2ncccn2)CC1 | inconclusive: 2.82 µM [inhibitor, single point] | 
Cc1cc(N(C)C)nc(Cl)n1 |  | inactive: -23.2%
Cc1ccc(/C=C2/SC(=S)N(c3ccc(S(=O)(=O)Nc4nccs4)cc3)C2=O)cc1 | inconclusive: 11.2 µM [inhibitor, partial curve, poor fit] | 
O=C(COC(=O)c1ccccc1Nc1ccc(SC(F)F)cc1)NCc1ccco1 | inconclusive: 39.8 µM [inhibitor, single point] | 
O=C(CN1C(=O)/C(=C/c2ccco2)SC1=S)Nc1ccc(C(=O)O)c(O)c1 | inconclusive: 7.94 µM [inhibitor, partial curve, poor fit] | 
O=C(Cn1ncc2c3ccccc3n(Cc3ccccc3)c2c1=O)NCCCN1CCCC1=O | inconclusive: 39.8 µM [inhibitor, single point] | 
Cc1cccc(N2CCN(C(=O)c3cn(C)c(=O)c4c3c3ccccc3n4C)CC2)c1C |  | inactive: -7.76%
Cc1ccc(OCC(=O)OCc2cc(=O)n3nc(C4CCCCC4)sc3n2)cc1 |  | inactive: 1.43%
O=C(Nc1ccc2c(c1)OCCO2)c1coc2ccccc2c1=O | inconclusive: 22.4 µM [inhibitor, single point] | 
O=C1CCCN2N=C(SCC(=O)Nc3nccs3)SC2=N1 |  | inactive: 1.88%
COCc1cc(=O)[nH]c(SCCS(=O)(=O)c2ccc(Cl)cc2Cl)n1 |  | inactive: -8.34%
CCOC(=O)/C(C#N)=C/c1ccc(N2CCN(C)CC2)cc1 | inconclusive: 39.8 µM [inhibitor, single point] | 
Cc1ccc(NS(=O)(=O)c2ccc(NC(=O)C(C)Sc3ccc(Cl)cc3)cc2)c(C)c1 (centres undefined) |  | inactive: -10.8%
CCc1ccc(OCC2c3cc(OC)c(OC)cc3CCN2C(=O)Cc2ccc(OC)c(OC)c2)cc1 (centres undefined) |  | inactive: 3.55%
COc1cc(NC(=O)c2csc3c2CCCC3)ncn1 |  | inconclusive: -41.1% [inhibitor]
CC1(C)CC(=O)C=C(c2ccc3ccccc3c2)C1 | inconclusive: 25.1 µM [inhibitor, single point] | 
CCN(CC)CCOC(=O)c1ccc(N)cc1 | inconclusive: 39.8 µM [inhibitor, single point] | 
